Assay results from article PMC6191539.
Results are given in words; binding and its absence hold for the method and conditions named.

Tests used:
[1] = target: NadA3 24–89 (Neisseria meningitidis serogroup B strain 2996) (UniProt Q8KH85); assay: SEC-MALS; SE-HPLC on TSK Super SW3000 coupled to MALLS, room temperature (18 to 26°C), 10 mM NaH2PO4, 400 mM (NH4)2SO4 pH 6.0, 40 μg of NadA loaded; trimer to monomers; both purified
[2] = target: NadA3 24–103 (Neisseria meningitidis serogroup B strain 2996) (UniProt Q8KH85); assay: as above

| Substance | binding [1] | binding [2] |
| --- | --- | --- |
| NadA3 24–89 (from UniProt Q8KH85 24-89) (domain or fragment) | no binding |  |
| NadA3 24–103 (from UniProt Q8KH85 24-103) (domain or fragment) |  | no binding |
